Publication PMC10321287, “β-amyloid binds to microglia Dectin-1 to induce inflammatory response in the pathogenesis of Alzheimer's disease” (International Journal of Biological Sciences, 2023)
Results are given in words; binding and its absence hold for the method and conditions named. In cells and extracts the contact can be indirect. Some results given as binding are weak or reduced against the parent protein; the word gives no strength. For some assays here: Sequences can lack the tags named with a protein.

Sequences of proteins named here, by UniProt entry; tags and fusion partners are left off. Residues count along the entry.
UniProt P05067, residues 672-713: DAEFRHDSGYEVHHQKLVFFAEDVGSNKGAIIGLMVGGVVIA

B1: Flag-tagged Dectin-1 and HA-tagged Dectin-1 (receptor, UniProt Q6QLQ4 1-244)
chain: MKYHSHIENLDEDGYTQLDFSTQDIHKRPRGSEKGSQAPSSPWRPIAVGLGILCFVVVVVAAVLGALGEYGHNSGRNPEEKDNFLSRNKENHKPTESSLDEKVAPSKASQTTGGFSQPCLPNWIMHGKSCYLFSFSGNSWYGSKRHCSQLGAHLLKIDNSKEFEFIESQTSSHRINAFWIGLSRNQSEGPWFWEDGSAFFPNSFQVRNTAPQESLLHNCVWIHGSEVYNQICNTSSYSICEKEL
B2: Dectin-1 (receptor, UniProt Q6QLQ4 1-244)
chain: B1 chain

What was measured:
[1] = biological target: Flag-tagged Dectin-1 and HA-tagged Dectin-1 (UniProt Q6QLQ4); assay: co-IP; HEK-293 (legend: HEK-293T) cells transfected with Flag-tagged and HA-tagged Dectin-1, exposed to 20 µM Aβ42 for indicated times; Flag-HA interaction
Biotinylated-Aβ42 = Biotinylated-Aβ42 (UniProt P05067); assay: pull-down; 100 µL of 20 µM biotinylated Aβ42 on streptavidin-agarose beads (biotin alone as control); BV2 cell lysate added, 24 h at 4°C, washed 3 times, western blot; only the target purified

| Binder | binding [1] | binding (Biotinylated-Aβ42) |
| --- | --- | --- |
| B1 | binds | – |
| B2 | – | binds |
